## Screening data, single-dose tests

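Assay of Toxoplasma gondii numbers, read through their beta-galactosidase reporter with a colour substrate. Concentration: 50 µM. Higher reads as fewer parasites (inferred from which compounds were picked for retests). Size under these conditions: about 18,000 compounds, about 170 of them at 50% or above in at least one test.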

Values are the deposited “Percent Effect”, in %. The record does not define 0% and 100%; most values in the screen are far below 50% and negative numbers occur (in some assays of this library far below -100). This is an unselected part of the compounds tested.

{"structure": "CN1CCCN(Cc2cc(F)cc(F)c2)CC1=O", "effect": 4.777}
{"structure": "CNC(=O)C1CCCN1C(=O)c1ccccc1O", "stereo": "stereo not drawn", "effect": -4.841}
{"structure": "CCn1ncnc1C(NC(=O)c1cncs1)C1CC1", "stereo": "stereo not drawn", "effect": 7.999}
{"structure": "Cc1cccc(CS(=O)(=O)CCS(C)(=O)=O)c1", "effect": -0.8104}
{"structure": "COC1CNCC1NC(=O)NC(C)C", "stereo": "stereo not drawn", "effect": -1.307}
{"structure": "Cc1nc2ccc(C(=O)N[C@H]3CC[C@H]3N)cc2nc1C", "effect": -2.184}
{"structure": "CNC(=O)CNC(=O)c1ccc(C#N)c(C)n1", "effect": -8.012}
{"structure": "CN(CC(N)=O)C(=O)c1cnn(-c2ccccc2)n1", "effect": 2.354}
{"structure": "OC1CCCN(Cc2cc(-c3ccco3)on2)C1", "stereo": "stereo not drawn", "effect": 9.953}
{"structure": "O=C1CCC(NS(=O)(=O)c2cc(Cl)ccc2F)CN1", "stereo": "stereo not drawn", "effect": 10.22}
{"structure": "CCOC(=O)C(C)(N)C(F)(F)F", "stereo": "stereo not drawn", "effect": 25.74}
{"structure": "CNC(=O)C1CCCN1Cc1cccc(N(C)C)c1", "stereo": "stereo not drawn", "effect": 7.721}
{"structure": "CCNC(=O)[C@@H]1C[C@H](N)CN1C(=O)C1(COC)CCC1", "effect": -8.268}
{"structure": "CC1CN(CC(=O)Nc2ccn(C)n2)CCCO1", "stereo": "stereo not drawn", "effect": -3.796}
{"structure": "COCc1ncc(C)n1C1CCCNC1", "stereo": "stereo not drawn", "effect": 1.298}
{"structure": "CC1(O)C(=O)Nc2ccccc21", "stereo": "stereo not drawn", "effect": 2.58}
{"structure": "NC(CO)c1cccc(F)c1", "stereo": "stereo not drawn", "effect": -28.61}
{"structure": "CC(C)COCC(C)NC(=O)CCCn1cccn1", "stereo": "stereo not drawn", "effect": 5.036}
{"structure": "C[C@@H]1COC[C@H](c2ccccc2)N1", "effect": 14.33}
{"structure": "COC(=O)c1ccc(CSc2n[nH]c(C)n2)o1", "effect": -3.646}
{"structure": "CNC(=O)C(CO)NC(=O)c1ccc(C)c(C)c1", "stereo": "stereo not drawn", "effect": -5.619}
{"structure": "CCN1CCC(NC(=O)CC(C)(C)C)CC1", "effect": -24.27}
{"structure": "COc1cccc(Cn2cnc(C#N)n2)c1", "effect": 8.917}
{"structure": "CSc1ccc(CN)cc1", "effect": 0.975}
{"structure": "CCC(=O)c1cccc(S(=O)(=O)NC(CN)C2CC2)c1", "stereo": "stereo not drawn", "effect": 0.9875}
{"structure": "CCc1nc(C)c(C(=O)NCC2CCS(=O)(=O)CC2)o1", "effect": 7.627}
{"structure": "CC(C)C(=O)NC1CCOc2ccccc21", "stereo": "stereo not drawn", "effect": -7.173}
{"structure": "COCC(=O)N1CCCn2ccnc2C1C1CCCC1", "stereo": "stereo not drawn", "effect": -2.705}
{"structure": "CNS(=O)(=O)c1ccccc1C(=O)OC", "effect": 3.354}
{"structure": "CC(=O)N1CSCC1c1nc(-c2cccs2)no1", "stereo": "stereo not drawn", "effect": 6.082}
{"structure": "CC(C)(C)OC(=O)N1CCN(C2CCCNC2)C(=O)C1", "stereo": "stereo not drawn", "effect": -6.129}
{"structure": "c1ccc(OCCCNCc2ccncc2)nc1", "effect": 4.875}
{"structure": "O=C(CCc1ccoc1)Nc1cnccn1", "effect": 4.99}
{"structure": "CC(N)COCC1CC1", "stereo": "stereo not drawn", "effect": -22.55}
{"structure": "Cc1c(C(C)O)nnn1-c1nonc1N", "stereo": "stereo not drawn", "effect": -17.29}
{"structure": "CN(C)S(=O)(=O)CCCN1C[C@H](C2CC2)[C@@H](N)C1", "effect": 27.29}
{"structure": "Cc1ccc(C(=O)NCCN)cc1F", "effect": -19.06}
{"structure": "OCc1scnc1Cl", "effect": 11.45}

Repeated from the top, 4 entries:

structure,effect
CN1CCCN(Cc2cc(F)cc(F)c2)CC1=O,4.777%
CNC(=O)C1CCCN1C(=O)c1ccccc1O (stereo not drawn),-4.841%
CCn1ncnc1C(NC(=O)c1cncs1)C1CC1 (stereo not drawn),7.999%
Cc1cccc(CS(=O)(=O)CCS(C)(=O)=O)c1,-0.8104%

The values are deposited in ChEMBL (CHEMBL3988442, “University of Dundee, Small-Polar-MMV Screening Library” (2021)).